# Out of some 360,000 compounds screened, about 7,500 (2.1%) were called active. This list was built around the results that the source calls inconclusive (neither active nor inactive); the mix of calls is not that of the screen. Calls come from the whole dose curve; as a rule, active = well fitted inhibition curve with a large enough effect; inconclusive = small, poorly fitted or top-dose-only effect, or effect the other way; inactive = flat fitted curve, though single readings scatter. Potencies beside an inconclusive call are fits to weak or partial responses and may not hold up.
# Experiment: Nrf2 qHTS screen for inhibitors; note: nearly all actives have a fitted effect of over 60% in size
# Details: A549 ARE-Fluc reporter, luciferase luminescence, 18-24 h; series mostly up to 46 µM
# Procedure, shortened: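 A549 ARE_Fluc cells (5000/well, 5% FBS OPTI-MEM) pre-incubated 2 h, then treated with compounds 18-24 h at 37C/5% CO2 in concentration-response. CellTiter-Fluor viability read first; BugLite luciferase luminescence after 15 min at room temperature gives Nrf2 activity.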
# Potency is the fitted concentration of half-maximal effect.
row,SMILES,Potency
1,Clc1ccc(/C=C\c2nccc3c2[nH]c2ccccc23)cc1,"inconclusive: 6.51 µM [activator, single point]"
2,Nc1c(Cl)cc(-c2cn(CCC(=O)O)c(-c3ccncc3)n2)cc1Cl,inactive
3,COc1cc(OC)c(OC)cc1CNc1cc(C)ccc1OC,"inconclusive: 29.1 µM [falling, single point]"
4,CCCCOC(=O)Nc1ccc(S(=O)(=O)Nn2cnnc2)cc1,"inconclusive: 0.366 µM [falling, full curve, poor fit]"
5,Cc1nc2ccc(NC(=O)Cc3ccccc3F)cc2s1,"inconclusive: 5.8 µM [activator, full curve]"
6,COc1ccc(NC(=O)c2c(N)c(C(=O)c3ccc(OC)cc3)n3ccccc23)cc1,"inconclusive: 20.6 µM [falling, partial curve]"
7,COc1ccc(C2Oc3ccccc3N2C(C)=O)cc1 (configuration not stated),"inconclusive: 6.51 µM [falling, partial curve]"
8,O=c1c(-c2ccc(F)cc2)coc2cc(O)ccc12,"inconclusive: 6.51 µM [activator, partial curve, poor fit]"
9,Cc1ccc(O)c(NC(=O)CCC2CCCCC2)c1,inactive
10,COc1ccc(NS(=O)(=O)c2ccc3oc(SCc4ccc(F)cc4)nc3c2)cc1,active: 18.4 µM
11,Brc1ccc(N=NNc2ccccc2)cc1,"inconclusive: 23.1 µM [activator, single point]"
12,CS(=O)(=O)N1CCN(C(=O)Cc2cccs2)CC1,"inconclusive: 1.84 µM [activator, single point]"
13,COc1ccc(Cn2c(=O)[nH]c3cc(C(=O)N4CCN(Cc5ccccc5)CC4)ccc3c2=O)cc1,active: 23.1 µM
14,CCOC(=O)c1c(-c2cccs2)csc1NC(=O)C(C)(C)C,"inconclusive: 0.82 µM [falling, full curve, poor fit]"
15,CCCn1c(/C=C/c2ccccc2)nc2ccccc21,"inconclusive: 1.46 µM [activator, full curve, poor fit]"
16,COc1cccc(C(=O)Nc2cccc(OC(C)=O)c2)c1,"inconclusive: 0.58 µM [falling, full curve, poor fit]"
17,CCn1c(CN2CCCCC2)nc2cc(NC(=O)COc3ccccc3C(C)(C)C)ccc21,inactive
18,COc1ccc(S(=O)(=O)N2CCN(C(=O)c3ccco3)CC2)c(C)c1C,"inconclusive: 16.4 µM [falling, partial curve]"
19,O=C(c1cc(COc2ccccc2)on1)N1CCCC(CN2CCOCC2)C1 (configuration not stated),"inconclusive: 23.1 µM [activator, single point]"
20,O=C(NCc1ccco1)c1ccc2c(=O)n(Cc3ccco3)c(SCC(=O)N3CCCC3)nc2c1,"inconclusive: 9.2 µM [falling, partial curve, poor fit]"
21,Cc1ccc(NC(=O)C(=O)NCC(c2cccnc2)N2CCN(C)CC2)cc1 (configuration not stated),"inconclusive: 23.1 µM [falling, single point]"

row,SMILES,Potency
1,COc1ccc(CCN2Cc3c(cccc3[N+](=O)[O-])C2=O)cc1OC,"inconclusive: 23.1 µM [falling, partial curve, poor fit]"
2,O=C(Nc1ccc(Br)cc1)c1cccc(NC(=O)C2C3CC4OC(=O)C2C4C3)c1 (configuration not stated),"inconclusive: 29.1 µM [falling, single point]"
3,CC(=O)c1cccc(NC(=S)NC(=O)C(C)C)c1,"inconclusive: 2.59 µM [activator, partial curve]"
4,CC1N(C)c2cc(NC(=O)c3cccs3)c(P(=O)(Nc3ccc([N+](=O)[O-])cc3)N3CCOCC3)cc2C1(C)C (configuration not stated),inactive
5,C/C(=N\NC(=S)NCCc1ccccc1)c1ccc(C)cc1,inactive
6,Cc1occc1C(=O)Nc1cccc(Cl)c1Cl,"inconclusive: 11.6 µM [activator, partial curve]"
7,Cc1ccccc1NC(=O)COC(=O)c1ccc(S(C)(=O)=O)c([N+](=O)[O-])c1,"inconclusive: 29.1 µM [falling, single point]"
8,CCCC(=O)NC1CCCc2c1cnn2-c1ccc(C)c(C)c1 (configuration not stated),inactive
9,O=C(CNC(=O)c1cccc(OC(F)F)c1)Nc1ccc(Cl)cc1,active: 25.9 µM
10,COC(=O)/C(C#N)=C/c1c(N2CCCCCC2)nc2c(C)cccn2c1=O,"inconclusive: 1.46 µM [falling, partial curve, poor fit]"
11,O=C(c1ccc(Br)cc1)c1sc(N2CCOCC2)nc1-c1ccccc1,"inconclusive: 29.1 µM [falling, single point]"
12,COc1ccc(Nc2nn(-c3ccc(OC(F)(F)F)cc3)nc2C(C)=O)cc1,"inconclusive: 4.11 µM [activator, full curve, poor fit]"
13,N#Cc1c(NC(=O)CSc2nnc(-c3ccncc3)n2CC2CCCO2)sc2c1CCCC2 (configuration not stated),"inconclusive: 7.31 µM [falling, partial curve]"
14,O=C(NCc1ccc(F)cc1)C1CCN(S(=O)(=O)c2ccc(Br)s2)CC1,"inconclusive: 20.6 µM [falling, single point]"
15,C/C(Cn1nnc([N+](=O)[O-])n1)=N\NC(=O)c1ccncc1,"inconclusive: 29.1 µM [falling, single point]"
16,O=C(NCC1CCCO1)c1ccc(COc2ccc(Br)cc2)cc1 (configuration not stated),active: 16.4 µM
17,Cc1ccc2nc(-c3ccc(-c4ccccn4)s3)cn2c1,"inconclusive: 3.66 µM [activator, partial curve, poor fit]"
18,COc1cccc(CSc2nc3ccncc3[nH]2)c1,"inconclusive: 2.59 µM [activator, full curve]"
19,C/C=C/C(=O)OCC(=O)Nc1cc(OC)c([N+](=O)[O-])cc1C,"inconclusive: 6.51 µM [falling, partial curve, poor fit]"
20,Nc1nn(-c2ccccc2)nc1C(=O)OCc1c(F)cccc1Cl,"inconclusive: 25.9 µM [activator, single point]"
21,CC(C)(C)c1ccc(C(=O)NC(=S)Nc2ccc(N3CCOCC3)cc2)cc1,"inconclusive: 16.4 µM [activator, partial curve, poor fit]"

# By substructure, those above containing a cyano group (2)
row,SMILES,Potency
10,COC(=O)/C(C#N)=C/c1c(N2CCCCCC2)nc2c(C)cccn2c1=O,"inconclusive: 1.46 µM [falling, partial curve, poor fit]"
13,N#Cc1c(NC(=O)CSc2nnc(-c3ccncc3)n2CC2CCCO2)sc2c1CCCC2 (configuration not stated),"inconclusive: 7.31 µM [falling, partial curve]"

# Reference: PubChem BioAssay AID504444 (National Center for Advancing Translational Sciences (NCATS), 2011)
